This assay concerns MRC-5: Human fetal lung fibroblasts. Description: Cytotoxicity on MRC-5 cells. In kind it is cell-based. Conditions: MRC5. As to the method: Fractions and isolated compounds were evaluated for antimicrobial activity in an integrated screening panel as reported before.

This is an account of results in PMC6274357, “Antiprotozoal and Antiglycation Activities of Sesquiterpene Coumarins from Ferula narthex Exudate” (Molecules, 2016).

“And” between values parts separate entries of the source, which are not always exact repeats. Equal entries are not always repeated.

With `CC/C(=C(\c1ccccc1)c1ccc(OCCN(C)C)cc1)c1ccccc1` [Tamoxifen, reference compound], the concentration for half-maximal inhibition (IC50) – broadly, the point on the concentration scale where inhibition reaches its midpoint – was 11.4 µg/mL and 11.3 µM.
